Reference: PubChem BioAssay AID1671190 (National Center for Advancing Translational Sciences (NCATS), 2021)
Screen size: about 580,000 compounds; about 6,100 (1.1%) were called active. The inconclusive results got no clear call from the source; some entries with a clear call stand among them for comparison. The call rests on the fitted dose curve; in most records, active means well fitted inhibition curve with a large enough effect; inconclusive means small, poorly fitted or top-dose-only effect, or another doubt; inactive means no such curve, though single readings can be large or run the other way. A potency beside an inconclusive call is a rough fit, not a confirmed value.
Potency means the concentration at half of the fitted maximal effect.

Amino acid sequences for entries named in this document (tags omitted). A change or cut given only in a name is not applied to a line headed by its entry.
UniProt P18054: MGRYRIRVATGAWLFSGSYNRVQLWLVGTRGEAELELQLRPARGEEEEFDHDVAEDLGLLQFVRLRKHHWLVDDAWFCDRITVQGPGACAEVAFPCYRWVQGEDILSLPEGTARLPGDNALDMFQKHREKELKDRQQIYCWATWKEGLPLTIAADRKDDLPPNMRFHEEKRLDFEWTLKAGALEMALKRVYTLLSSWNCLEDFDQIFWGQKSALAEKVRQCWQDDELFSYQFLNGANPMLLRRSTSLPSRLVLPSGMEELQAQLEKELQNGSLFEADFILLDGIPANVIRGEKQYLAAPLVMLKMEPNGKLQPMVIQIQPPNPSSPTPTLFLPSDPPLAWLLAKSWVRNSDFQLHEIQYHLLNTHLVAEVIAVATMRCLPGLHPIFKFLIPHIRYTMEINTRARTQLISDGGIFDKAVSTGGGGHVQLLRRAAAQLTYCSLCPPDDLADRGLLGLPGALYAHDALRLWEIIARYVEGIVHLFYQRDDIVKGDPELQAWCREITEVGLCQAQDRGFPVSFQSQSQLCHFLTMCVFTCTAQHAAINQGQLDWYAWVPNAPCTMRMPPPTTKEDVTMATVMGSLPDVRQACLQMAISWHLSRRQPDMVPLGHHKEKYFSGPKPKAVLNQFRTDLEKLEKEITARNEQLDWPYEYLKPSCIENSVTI

Each compound was assayed against Polyunsaturated fatty acid lipoxygenase ALOX12 (Homo sapiens) (UniProt P18054) (assay: Primary qHTS assay for inhibitors of human arachidonate 12S-lipoxygenase (ALOX12): Round 2). Conditions: purified 12hLO, xylenol orange hydroperoxide absorbance; series mostly up to 108 µM.
Summary of the method: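 Hydroperoxide product was detected by ferrous iron/xylenol orange as the 573 to 405 nm absorbance ratio. Arachidonic acid at 40 uM (final) was turned over for 30 min at room temperature by 150 nM human 12hLO, pH 7.0 Hepes buffer, after 15 min compound preincubation.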
`Cc1ccc(C(=O)NC(=S)/C=C2\N(C)c3ccccc3C2(C)C)cc1` was tested, and the Potency was active: 10 µM. `CC12CCC(C(=O)NCCN3CCCCC3)(CC1=O)C2(C)C` (configuration not stated) was tested, and the Potency was “inactive”. With `O=C(NC1=C(NC2CCS(=O)(=O)C2)C(=O)c2ccccc2C1=O)c1ccccc1` (configuration not stated) the Potency was inconclusive: 50.1 µM [inhibitor, partial curve, poor fit]. With `CN(C(=O)/C=C/c1cccc(Cl)c1)C1(c2ccccc2Cl)CCCCC1=O` (configuration not stated) the Potency was inconclusive: 14.1 µM [inhibitor, partial curve, poor fit]. For `COc1ccc2nc(/N=C\N(C)C)sc2c1`, the Potency was inconclusive: 22.4 µM [inhibitor, partial curve, poor fit]. In the case of `Cc1ccc(CNC(=O)CSc2nc3cc4c(cc3c(=O)n2Cc2ccco2)OCO4)cc1`, the Potency is reported as inconclusive: 79.4 µM [inhibitor, single point]. `COc1cc(/C=C2\C(C)=C(C#N)c3nc(N)c(C#N)c(C)c32)ccc1OCC(=O)O` was tested, and the Potency was inconclusive: 50.1 µM [inhibitor, partial curve, poor fit]. `O=c1cc(-c2cc3ccccc3o2)c2cc(O)ccc2o1` was tested, and the Potency was inconclusive: 50.1 µM [inhibitor, partial curve, poor fit]. `O=P(Nc1ccccc1)(Nc1ccccc1)c1ccccc1` was tested, and the Potency was inconclusive: 56.2 µM [inhibitor, partial curve, poor fit]. For `CCCSC1=C(C#N)C(c2ccc(C)cc2)CC(=O)N1` (configuration not stated), the Potency was inconclusive: 5.01 µM [inhibitor, full curve, poor fit]. `O=C(Cc1ccccc1)N1CC2CC(C1)[C@H]1CCCC(=O)N1C2` (some centres not stated) was tested, and the Potency was “inactive”. `COc1ccc(C2=NS(=O)(=O)N(C)C(C(=O)N3CCCC3)=C2)cc1` was tested, and the Potency was inconclusive: 50.1 µM [inhibitor, partial curve, poor fit]. In the case of `Cc1c(NC(=O)C(C)OC(=O)Cc2ccc(F)cc2)c(=O)n(-c2ccccc2)n1C` (configuration not stated), the Potency is reported as “inactive”. `CC(=O)c1c(N2CCCC2)[nH]c(-c2ccccc2)nc1=S` was tested, and the Potency was active: 44.7 µM. `Cc1ccc(C2Cn3nnc(-c4nc(-c5cccc(Br)c5)no4)c3CO2)c(C)c1` (configuration not stated) was tested, and the Potency was “inactive”. For `Cc1nc2ccc(NC(=O)Cc3cccc(C(F)(F)F)c3)cc2s1`, the Potency was active: 39.8 µM. In the case of `C#CCN(C)Cc1nc(C2(O)CCN(C(=O)c3ccccc3)CC2)cs1`, the Potency is reported as “inactive”. With `O=C(O)c1ccccc1C(=O)NCCCCCCNC(=O)c1ccccc1C(=O)O` the Potency was inconclusive: 4.47 µM [inhibitor, full curve]. In the case of `CCOCCc1nn2c(=O)cc(COC(=O)c3ccccc3OC)nc2s1`, the Potency is reported as “inactive”. For `CCOC(=O)C1CCCN(C(=O)c2ccc3c(c2)sc2nc(-c4cccc(OC)c4)cn23)C1` (configuration not stated), the Potency was inconclusive: 112 µM [inhibitor, partial curve, poor fit]. With `CC(C)CNC1=C(C(=S)Nc2ccccc2)C(=O)CC(C)(C)C1` the Potency was inconclusive: 44.7 µM [inhibitor, partial curve, poor fit]. With `COc1cc(/C=C2/SC(=NCc3ccccc3)N(Cc3ccccc3)C2=O)ccc1O` the Potency was inconclusive: 79.4 µM [inhibitor, partial curve, poor fit]. For `CCOc1ccccc1NC(=S)N1CCC(c2nc3ccccc3o2)CC1`, the Potency was “inactive”. In the case of `COc1ccc(CCCc2nnc(SCC(=O)Nc3cccc(F)c3C)o2)cc1`, the Potency is reported as inconclusive: 12.6 µM [inhibitor, partial curve, poor fit]. With `COCc1cc(=O)[nH]c(/N=C(\N)Nc2ccc(C)cc2C)n1` the Potency was “inactive”. `Cc1ccc(Cn2c(-c3ccc(F)cc3)nc(C)c(CCO)c2=O)cc1C` was tested, and the Potency was inconclusive: 17.8 µM [inhibitor, full curve, poor fit]. `O=C(Nc1ccc(C(=O)O)cc1)/C(=C\c1ccc2c(c1)OCO2)NC(=O)c1ccc(Br)o1` was tested, and the Potency was “inactive”. For `COCCOc1nc2c(c(=O)n(C)c(=O)n2C)n1Cc1ccccc1`, the Potency was inconclusive: 31.6 µM [inhibitor, partial curve, poor fit]. For `CCOC(=O)c1ccc(S(=O)(=O)NNS(=O)(=O)c2ccc(C)cc2)cc1`, the Potency was inconclusive: 12.6 µM [inhibitor, full curve]. For `O=C(C1CC1)N1CCC2(CC1)CCN(CCc1ccccc1)c1ccccc1O2`, the Potency was inconclusive: 50.1 µM [inhibitor, partial curve, poor fit]. In the case of `CCC1(C)C(Nc2c(C)cccc2C)=NC(=S)N1c1ccc(NC(C)=O)cc1` (configuration not stated), the Potency is reported as “inactive”. With `Cc1c(-c2cccc3c(CCCOc4cccc5ccccc45)c(C(=O)O)n(Cc4cccnc4)c23)c(COc2ccc(N3CCN([S+](=O)([O-])N(C)C)CC3)cc2)nn1C` the Potency was inconclusive: 0.344 µM [inhibitor, full curve, poor fit]. `CCOc1ccccc1NC(=O)CSc1nc2ccccc2c(=O)n1CC1CCCO1` (configuration not stated) was tested, and the Potency was “inactive”. For `O=C(NCCCN1CCC(Cc2ccccc2)CC1)C1CC(=O)N(C2CCCCCC2)C1` (configuration not stated), the Potency was inconclusive: 126 µM [inhibitor, partial curve, poor fit]. In the case of `CC(C)CC(=O)N1CCCN(S(C)(=O)=O)c2ccccc21`, the Potency is reported as “inactive”. In the case of `C=CCNC(=O)N1CCCC(N2CCN(c3ccccc3OC)CC2)C1` (configuration not stated), the Potency is reported as “inactive”. In the case of `C[C@@H]1NC(=O)[C@H](CC(N)=O)NC(=O)c2cc([N+](=O)[O-])cc(I)c2OCC[C@@H](C(=O)NC(CC(=O)O)C(N)=O)NC1=O` (some centres not stated), the Potency is reported as “inactive”. In the case of `CC(C)Cc1nc2nccc(-c3ccccn3)n2n1`, the Potency is reported as “inactive”. With `CCOc1ccc(Nc2nc(-c3cccc(Cl)c3)c3c(n2)-c2ccccc2OC3)cc1` the Potency was “inactive”. `Cc1ccc(C(=O)N2CCc3nc(C(C)C)nc(-c4ccc(O)cc4)c3CC2)cc1` was tested, and the Potency was “inactive”. With `COc1ccc(N(CC(=O)Nc2cccc(Cl)c2)S(=O)(=O)c2c(C)[nH]c(=O)[nH]c2=O)cc1` the Potency was inconclusive: 50.1 µM [inhibitor, partial curve, poor fit]. In the case of `CCC(c1nnnn1-c1ccc2c(c1)OCCO2)N1CCN(C/C=C/c2ccccc2)CC1` (configuration not stated), the Potency is reported as inconclusive: 79.4 µM [inhibitor, single point]. With `CC(C)NC(=S)NN=C1c2ccccc2-c2ccccc21` the Potency was inconclusive: 7.94 µM [inhibitor, full curve, poor fit]. `CC(C)CCNC(=O)NC(=O)CSc1nnc(-c2ccccc2)c(-c2ccccc2)n1` was tested, and the Potency was inconclusive: 31.6 µM [inhibitor, partial curve, poor fit]. For `CCc1nnc(NC(=O)c2sc3nc4cc(C)ccc4cc3c2N)s1`, the Potency was inconclusive: 44.7 µM [inhibitor, partial curve, poor fit]. For `N#C/C(=C/c1cccs1)c1ccccn1`, the Potency was “inactive”. `Cc1cccc(OCc2nc(CC(=O)Nc3ccc(Cl)cc3)cs2)c1` was tested, and the Potency was inconclusive: 5.01 µM [inhibitor, full curve, poor fit]. For `COc1ccccc1Nc1nc2ccccc2nc1NS(=O)(=O)c1cccc2nsnc12`, the Potency was “inactive”. For `CCc1c(O)nc(SCC(=O)Nc2c(C)cccc2C)n(-c2ccc(F)cc2)c1=O`, the Potency was inconclusive: 44.7 µM [inhibitor, partial curve, poor fit]. With `O=C(CN1CCN(c2ccc(O)cc2)CC1)Nc1cc(S(=O)(=O)N2CCOCC2)ccc1Cl` the Potency was inconclusive: 100 µM [inhibitor, partial curve, poor fit]. With `CC(C)c1nnc(SCC(=O)NCCC2=CCCCC2)n1N` the Potency was inconclusive: 56.2 µM [inhibitor, partial curve, poor fit]. In the case of `CC(=O)c1ccc(C#CC(C)(C)O)s1`, the Potency is reported as “inactive”. `C[C@H](NC(=O)c1ncn2c1c(=O)[nH]c1ccccc12)c1ccccc1` was tested, and the Potency was “inactive”. `CCOC(=O)c1c(NC(=O)CN2C(=O)NC3(CCCCC3)C2=O)sc(C)c1-c1ccc(C)cc1` was tested, and the Potency was inconclusive: 141 µM [inhibitor, partial curve, poor fit]. For `C=CC(=O)NN(C)c1ncc(C(F)(F)F)cc1Cl`, the Potency was “inactive”. With `Cc1ccc(-n2nc3c4c(cccc4c2=O)-c2ccccc2-3)cc1` the Potency was “inactive”. For `CCCCc1nn2c(=O)cc(COC(=O)CNC(=O)c3cccc(C)c3)nc2s1`, the Potency was inconclusive: 35.5 µM [inhibitor, partial curve]. `O=C(Nc1ccc(N2CCCC2)c(Cl)c1)c1ccc(Br)o1` was tested, and the Potency was inconclusive: 44.7 µM [inhibitor, partial curve, poor fit]. For `COc1ccc(S(=O)(=O)Nc2ccc3c(c2)C(=O)N([C@H](C)CO)C[C@@H](C)[C@@H](CN(C)S(=O)(=O)c2ccc(Cl)cc2)O3)cc1`, the Potency was inconclusive: 50.1 µM [inhibitor, partial curve, poor fit]. With `NC(=S)N/N=C/c1ccccc1Cl` the Potency was inconclusive: 31.6 µM [inhibitor, partial curve]. In the case of `CC(C)CCn1nc(C(=O)Nc2nc(-c3ccc(F)cc3)cs2)c2ccccc2c1=O`, the Potency is reported as “inactive”. `O=C(Nc1cc(Br)c(O)c(Br)c1)c1cccc(NC(=O)c2ccco2)c1` was tested, and the Potency was inconclusive: 35.5 µM [inhibitor, single point]. For `CCN1CCC2(Cc3ccccc3CN([S+](=O)([O-])c3ccccc3)C2)C1` (configuration not stated), the Potency was inconclusive: 50.1 µM [inhibitor, partial curve, poor fit]. With `O=C(COc1ccc(F)cc1)N(Cc1cccc(Br)c1)C1CCS(=O)(=O)C1` (configuration not stated) the Potency was “inactive”. With `Cc1cccc(C(=O)Oc2ccccc2/C=N/Nc2ccc([N+](=O)[O-])cc2)c1` the Potency was inconclusive: 50.1 µM [inhibitor, partial curve, poor fit]. `CCCc1cc(=O)oc2cc(OC(C)C(=O)NCc3ccccn3)ccc12` (configuration not stated) was tested, and the Potency was “inactive”. `O=C(O)c1ccc(N/N=C/c2ccc3c(c2)OCO3)cc1` was tested, and the Potency was inconclusive: 15.8 µM [inhibitor, partial curve].
